# Test results: US12559454B2, “Benzenesulfonamide derivatives and uses thereof” (2692372 Ontario, Inc., priority 2019, dated 2026)
# System: normal pooled human fibroblasts
# Assay: Viability of normal pooled human fibroblasts (Example G1)
# Conditions: IC50 human fibroblasts/IC50 RL cells
row,SMILES,therapeutic index (TI)
1,"Nc1ncnc2c1c(-c1ccc(Oc3ccccc3)cc1)nn2[C@@H]1CCCN(S(=O)(=O)c2c(F)c(F)c(F)c(F)c2F)C1 [I-A1, (R)-1-(1-((perfluorophenyl)sulfonyl)piperidin-3-yl)-3-(4-phenoxyphenyl)-1H-pyrazolo[3,4-d]pyrimidin-4-amine]",2.5
2,"Nc1ncnc2c1c(-c1ccc(Oc3ccccc3)cc1)nn2[C@@H]1CCCN(S(=O)(=O)c2c(F)c(F)c(F)c(F)c2OC2CC2)C1 [I-A6, (R)-1-(1-((2-cyclopropoxy-3,4,5,6-tetrafluorophenyl)sulfonyl)piperidin-3-yl)-3-(4-phenoxyphenyl)-1H-pyrazolo[3,4-d]pyrimidin-4-amine]",> 25
